In PubChem BioAssay AID328 (DTP/NCI, 2004):
The list does not hold the whole screen: it is rich in T/C values a quarter to a half above the control, in often repeated tests (any T/C) and in doses without a T/C. Other doses and runs of a compound stand elsewhere. T/C gives the treated animals as a percentage of the vehicle group. Some entries give survivors of the animals treated and no T/C: the source files T/C as zero there, which appears to mark a toxic dose or a test without result, not a measured value. Some survivor counts are full or nearly so, which does not show that the dose was tolerated: survival well below the control is almost never listed, so the zero probably covers shortened survival too. Counts of survivors are from the toxicity check (mostly the fifth day) where no day follows; animals may have died later. Schedules are NCI's codes, taken here to give the interval after Q, in days (D) or hours (H), and the number of doses after X. Some structures stand for samples that the source files as different forms (salt, stereo form or complex); doses refer to the form tested. Some entries hold several experiments; the values are given in rising order. Where survival is the endpoint, this PubChem deposit counts one and a half times the control or more as active, and values a quarter to a half above the control carry no call in these data; other NCI protocols may use other cut-offs. Some T/C values are followed by the survivors on the day toxicity was checked, most often the fifth; where none is given, no animal had died by that day.

Tested on: BDF1 mice, P388 leukemia ip, median survival T/C
Assay: NCI In Vivo Anticancer Drug Screen. Data for tumor model P388 Leukemia (intraperitoneal) in B6D2F1 (BDF1) mice
Conditions: T/C endpoint: median survival time, higher T/C = longer survival
In short: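 Mice carrying the transplantable tumour receive compound or vehicle. Survival is followed in each arm, and the treated measure is divided by the vehicle measure.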

[1] = dose: 100.0 mg/kg/injection, schedule: Q01DX009 (ip), vehicle: saline with Tween-80
[2] = dose: 25.0 mg/kg/injection, schedule: Q01DX009 (ip), vehicle: Klucel (hydroxypropylcellulose) (HPC)
[3] = dose: 400.0 mg/kg/injection, schedule: Q01DX009 (ip), vehicle: saline with Tween-80
[4] = dose: 12.5 mg/kg/injection, schedule: Q01DX009 (ip), vehicle: saline with Tween-80
[5] = dose: 25.0 mg/kg/injection, schedule: Q01DX009 (ip), vehicle: saline with Tween-80
[6] = dose: 50.0 mg/kg/injection, schedule: Q01DX009 (ip), vehicle: saline with Tween-80
[7] = dose: 200.0 mg/kg/injection, schedule: Q01DX009 (ip), vehicle: saline with Tween-80
[8] = dose: 200.0 mg/kg/injection, schedule: Q01DX009 (ip), vehicle: saline

`CC1(C)N=C(N)N=C(N)N1c1ccccc1` was tested, and the survivor count (dose: 75.0 mg/kg/injection, schedule: Q01DX009 (ip), vehicle: saline) was 1 of 6, the survivor count (dose: 150.0 mg/kg/injection, schedule: Q01DX009 (ip), vehicle: saline) was 0 of 6 and the survivor count (dose: 300.0 mg/kg/injection, schedule: Q01DX009 (ip), vehicle: saline) was 0 of 6.
With `Nc1ccc2cc3ccc(N)cc3nc2c1` the T/C (dose: 16.5 mg/kg/injection, schedule: Q01DX009 (ip), vehicle: saline) was 140 % of control and the survivor count (dose: 37.5 mg/kg/injection, schedule: Q01DX009 (ip), vehicle: saline) was 6 of 6.
In the case of `OC(CBr)(c1ccccc1)c1ccccc1`, the survivor count (dose: 6.25 mg/kg/injection, schedule: Q04DX003 (ip), vehicle: saline with Tween-80) is reported as 6 of 6 and the survivor count (dose: 25.0 mg/kg/injection, schedule: Q04DX003 (ip), vehicle: saline with Tween-80) is reported as 6 of 6.
For `c1ccc2c(Nc3ccc(C4=NCCN4)cc3)nnc(Nc3ccc(C4=NCCN4)cc3)c2c1`, the T/C (dose: 100.0 mg/kg/injection, schedule: Q04DX003 (ip), vehicle: saline with Tween-80) was 140 % of control [4 of 6 alive] and the survivor count (dose: 150.0 mg/kg/injection, schedule: Q04DX003 (ip), vehicle: saline with Tween-80) was 0 of 6.
With `O=[N+]([O-])c1ccc(S(=O)(=O)Cc2ccccc2)c2c1no[n+]2[O-]` the survivor count [1] was 3 of 7.
In the case of `c1ccc([I+]c2ccccc2)cc1`, the survivor count (dose: 25.0 mg/kg/injection, schedule: Q04DX003 (ip), vehicle: saline sonified) is reported as 6 of 6, the survivor count (dose: 50.0 mg/kg/injection, schedule: Q04DX003 (ip), vehicle: saline sonified) is reported as 0 of 6 and the survivor count (dose: 50.0 mg/kg/injection, schedule: Q04DX003 (sc), vehicle: olive oil, sesame oil, peanut oil) is reported as 2 of 6. The survivor count (dose: 100.0 mg/kg/injection, schedule: Q04DX003 (sc), vehicle: olive oil, sesame oil, peanut oil) was 0 of 6, the survivor count (dose: 200.0 mg/kg/injection, schedule: Q04DX003 (sc), vehicle: olive oil, sesame oil, peanut oil) was 0 of 6 and the survivor count (dose: 400.0 mg/kg/injection, schedule: Q04DX003 (sc), vehicle: olive oil, sesame oil, peanut oil) was 0 of 6.
With `Cc1c(CNc2ccc(C(=O)NC(CC(=O)O)CC(=O)O)cc2)ccc2nc(N)nc(N)c12` the survivor count (dose: 3.0 mg/kg/injection, schedule: Q01DX009 (ip), vehicle: saline) was 5 of 6, the survivor count (dose: 4.5 mg/kg/injection, schedule: Q01DX009 (ip), vehicle: saline) was 5 of 6 and the survivor count (dose: 6.0 mg/kg/injection, schedule: Q01DX009 (ip), vehicle: saline) was 5 of 6.
With `CNC(=O)OCc1c(COC(=O)NC)c(-c2ccc(Cl)cc2)n2c1CCC2` the T/C (dose: 12.5 mg/kg/injection, schedule: Q01DX009 (ip), vehicle: Klucel (hydroxypropylcellulose) (HPC)) was 129 % of control and the T/C [2] was 135 % of control.
For `CN(C)c1ccc(/C=C/c2ccnc3ccccc23)c(Cl)c1`, the survivor count [3] was 3 of 6.
For `Clc1ccc2nc(CI)c(CI)nc2c1`, the T/C [4] was 130 % of control, the T/C [2] was 127 % of control and the T/C [5] was 125 % of control [5 of 6 alive]. The T/C [6] was 130 % of control, the survivor count [6] was 5 of 6 and the survivor count (dose: 75.0 mg/kg/injection, schedule: Q01DX009 (ip), vehicle: saline with Tween-80) was 5 of 6. For the same compound, the survivor count [1] was 6 of 6, the survivor count [7] was 1 of 6 and the survivor count [3] was 0 of 6.
In the case of `C[n+]1c(-c2cc(Cl)cc(Cl)c2)c2cc([N+](=O)[O-])ccc2c2ccccc21`, the T/C (dose: 100.0 mg/kg/injection, schedule: Q04DX003 (ip), vehicle: water) is reported as 135 % of control.
In the case of `C=CCC(C)/C(=N\[N+](C)(C)C)c1ccccc1` (stereo unspecified), the survivor count (dose: 100.0 mg/kg/injection, schedule: Q01DX001 (ip), vehicle: saline) is reported as 0 of 6, the survivor count (dose: 200.0 mg/kg/injection, schedule: Q01DX001 (ip), vehicle: saline) is reported as 0 of 6 and the survivor count (dose: 400.0 mg/kg/injection, schedule: Q01DX001 (ip), vehicle: saline) is reported as 0 of 6.
For `CCCCC1CCCCCCc2[nH]c(/C=C3\N=C(c4ccc[nH]4)C=C3OC)cc21` (stereo unspecified), the survivor count [4] was 2 of 6, the survivor count [5] was 0 of 6 and the survivor count [6] was 0 of 6.
With `CC(C)(C)CC(C)(C)c1c(O)cc(O)cc1Cl` the survivor count (dose: 50.0 mg/kg/injection, schedule: Q01DX009 (ip), vehicle: gum acacia) was 6 of 6, the survivor count (dose: 100.0 mg/kg/injection, schedule: Q01DX009 (ip), vehicle: gum acacia) was 0 of 6 and the survivor count (dose: 200.0 mg/kg/injection, schedule: Q01DX009 (ip), vehicle: gum acacia) was 0 of 6.
In the case of `COc1cc(NCCCCC(C)N)c2nccc(C)c2c1` (stereo unspecified), the survivor count (dose: 100.0 mg/kg/injection, schedule: Q01DX009 (ip), vehicle: saline) is reported as 4 of 6 and the survivor count [8] is reported as 0 of 6.
For `Cc1cc2nc3c(=O)[nH]c(=O)nc-3n(CC(O)C(O)C(O)C(O)CO)c2cc1C` (stereo unspecified), the survivor count (dose: 50.0 mg/kg/injection, schedule: Q01DX010 (ip), vehicle: saline) was 6 of 6 and the T/C (dose: 200.0 mg/kg/injection, schedule: Q01DX010 (ip), vehicle: saline) was 125 % of control.
`CC(O)C1CCCNC1` (stereo unspecified) was tested, and the survivor count [8] was 5 of 6 and the survivor count (dose: 400.0 mg/kg/injection, schedule: Q04DX003 (ip), vehicle: saline) was 5 of 6.
With `CCc1nc2ccccc2c(=O)n1C` the survivor count [1] was 6 of 6.
With `CCCCC(=O)OCC1OC(n2cnc3c(=S)nc[nH]c32)C(OC(=O)CCCC)C1OC(=O)CCCC` (stereo unspecified) the survivor count (dose: 200.0 mg/kg/injection, schedule: Q01DX009 (sc), vehicle: olive oil, sesame oil, peanut oil) was 6 of 6 and the survivor count (dose: 400.0 mg/kg/injection, schedule: Q01DX009 (sc), vehicle: olive oil, sesame oil, peanut oil) was 6 of 6.
In the case of `c1ccc(-c2nc3ccccc3nc2-c2ccc(-c3nc4ccccc4nc3-c3ccccc3)cc2)cc1`, the survivor count [6] is reported as 6 of 6, the survivor count [1] is reported as 5 of 6 and the survivor count [7] is reported as 6 of 6.
With `C=CCC1CCSC1=O` (stereo unspecified) the survivor count (dose: 200.0 mg/kg/injection, schedule: Q04DX003 (ip), vehicle: saline with Tween-80) was 1 of 6 and 2 of 6 and the survivor count (dose: 400.0 mg/kg/injection, schedule: Q04DX003 (ip), vehicle: saline with Tween-80) was 0 of 6.
With `CSc1cccc(NC(=O)N2CCN(c3ccccc3)CC2)c1` the survivor count (dose: 50.0 mg/kg/injection, schedule: Q01DX009 (ip), vehicle: DMSO) was 0 of 6.
